Test results: paper PMC12848304, “Small-molecule inhibitor of C‑terminal HSP90 dimerization modulates autophagy and functions synergistically with mTOR inhibition to kill cisplatin-resistant cancer cells” (Cell Death & Disease, 2025)

Amino acid sequences for entries named in this document (tags omitted). A change or cut given only in a name is not applied to a line headed by its entry.
UniProt P08238: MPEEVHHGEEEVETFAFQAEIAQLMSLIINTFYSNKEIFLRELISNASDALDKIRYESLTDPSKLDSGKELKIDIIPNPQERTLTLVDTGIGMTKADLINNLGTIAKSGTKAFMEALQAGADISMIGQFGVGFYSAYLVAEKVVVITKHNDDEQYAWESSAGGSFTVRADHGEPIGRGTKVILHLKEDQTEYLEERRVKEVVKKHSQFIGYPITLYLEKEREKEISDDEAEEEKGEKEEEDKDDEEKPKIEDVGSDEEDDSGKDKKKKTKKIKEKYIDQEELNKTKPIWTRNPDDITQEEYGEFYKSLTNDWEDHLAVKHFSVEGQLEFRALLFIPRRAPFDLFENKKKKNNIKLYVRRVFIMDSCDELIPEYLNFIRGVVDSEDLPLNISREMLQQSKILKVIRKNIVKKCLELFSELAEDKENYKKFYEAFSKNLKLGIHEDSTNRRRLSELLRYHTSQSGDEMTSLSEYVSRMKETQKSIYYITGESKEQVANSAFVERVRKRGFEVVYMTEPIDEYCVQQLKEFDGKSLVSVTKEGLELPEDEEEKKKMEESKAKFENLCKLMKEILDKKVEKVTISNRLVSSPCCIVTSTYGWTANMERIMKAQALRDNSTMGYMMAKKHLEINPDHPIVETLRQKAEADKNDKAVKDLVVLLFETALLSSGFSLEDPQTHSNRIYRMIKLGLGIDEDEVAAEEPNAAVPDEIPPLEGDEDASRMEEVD
UniProt Q08752: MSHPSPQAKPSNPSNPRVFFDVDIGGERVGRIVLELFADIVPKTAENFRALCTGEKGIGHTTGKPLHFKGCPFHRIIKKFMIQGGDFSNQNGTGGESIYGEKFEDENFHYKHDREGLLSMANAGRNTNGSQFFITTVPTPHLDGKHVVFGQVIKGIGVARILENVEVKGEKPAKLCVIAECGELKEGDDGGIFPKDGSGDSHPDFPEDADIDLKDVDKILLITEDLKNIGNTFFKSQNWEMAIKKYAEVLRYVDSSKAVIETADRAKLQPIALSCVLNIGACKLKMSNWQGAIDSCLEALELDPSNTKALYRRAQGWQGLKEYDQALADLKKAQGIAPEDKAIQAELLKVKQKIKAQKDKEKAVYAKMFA

Molecular target: CTD of recombinant HSP90β (UniProt P08238)
Test: AlphaScreen or HTRF; TR-FRET, HSP90 CTD TR-FRET assay kit (50289, BPS Bioscience); PPID-GST-tag and HSP90β CTD, 2 h at room temperature; ratio 665 nm/620 nm; DMSO as positive control (100% activity), no PPID as negative control; VWK147 (1 mM) and coumermycin A1 as inhibitors; both purified

Peptidyl prolyl isomerase D (PPID), GST-tagged (from UniProt Q08752 1-370)
binding: binds

These are yes or no findings as the source states them, for the method shown. Binding can be weak; no strength is given.
